Data as given in PubChem BioAssay AID504804 (Drosophila RNAi Screening Center, 2011).
The deposit covers about 19,000 reagents; shown is an unselected part of those that have a named target and a result. Over the whole deposit, 47 (0.25%) were called active. 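Signals are raw, not normalised; exact z-scores behind calls not deposited; actives needed confirmation, so some wells reaching 2 SD are inactive.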 A plus sign joins genes that one reagent is predicted to hit. Reagent sequences are not shown.

Assay: 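Fly genes whose loss lessens doxorubicin-driven cell death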 (primary screen)
System: Drosophila Kc cells
Reagent: long dsRNA against Drosophila genes, 0.5 µg dsRNA per well
Duration: 96 h (48 h knock-down, then 48 h drug)
Treatment: doxorubicin 5 µg/ml for 48 h, added 48 h after dsRNA
Measurement: 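Luminescent ATP counts per replicate, not normalised, reflecting viable cells after 48 h dsRNA knock-down followed by 48 h of 5 µg/ml doxorubicin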
Direction: raw ATP luminescence: higher = more viable cells, protection from doxorubicin
Active means: 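z-score of 2 or more over plate mean in both duplicates, retained only when retests and separate dsRNAs confirm the protection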

gene	dsRNA	SD above plate mean	raw ATP luminescence, replicate 1	raw ATP luminescence, replicate 2	outcome
CG14607	DRSC12551		70490	74917	inactive
Jon99Ci	DRSC16860		45230	23730	inactive
Cyp313a3	DRSC16626		57117	50720	inactive
CG6409	DRSC10630		33880	35477	inactive
dtn	DRSC17939		38400	37390	inactive
CG33474	DRSC05218		74637	97457	inactive
Adar	DRSC17725		55680	49100	inactive
coro	DRSC05007		63963	62350	inactive
CalpB	DRSC11109		37843	37717	inactive
REPTOR	DRSC14626		43230	26043	inactive
Cnx14D	DRSC20214		2.60e5	2.22e5	inactive
CG40551 (retired record)	DRSC21229		1.91e5	2.64e5	inactive
Zn72D	DRSC11318		22007	24967	inactive
Dscam1	DRSC05047		90640	85967	inactive
Dscam1	DRSC05048		82990	78663	inactive
Dscam1	DRSC07407		57457	74037	inactive
CG8661	DRSC20115		2.78e5	2.25e5	inactive
CG3704	DRSC18174		45340	46130	inactive
CG3704	DRSC18645		70230	64570	inactive
CG9030	DRSC20139		4.20e5	3.45e5	inactive
HUWE1	DRSC20089		3.18e5	3.19e5	inactive
Scm	DRSC16853		64260	50993	inactive
Naa35	DRSC04447		57090	61723	inactive
Sam-S	DRSC00758		96720	66883	inactive
CG7695	DRSC16289		59250	52540	inactive
hep	DRSC19839		2.58e5	2.41e5	inactive
hep	DRSC20337		2.97e5	2.78e5	inactive
Jon66Cii	DRSC10778		72900	81987	inactive
step	DRSC03694		33837	33180	inactive
step	DRSC03699		76787	58313	inactive
TBC1d7	DRSC15985		93740	64110	inactive
CG14562	DRSC11723		69647	62243	inactive
Cpn	DRSC16613		78710	44300	inactive
meigo	DRSC15877		46410	57980	inactive
CG17801	DRSC15273		46680	44690	inactive
Proc-R	DRSC18410		47170	48880	inactive
CG13748	DRSC06419		42763	79880	inactive
CG8777	DRSC07263		67487	61750	inactive
CG2200	DRSC19840		2.94e5	2.94e5	inactive
CG17329	DRSC01926		67950	80643	inactive
smp-30	DRSC17059		1.16e5	78000	inactive
MFS18	DRSC00452	at least 2 SD above plate mean	1.51e5	1.09e5	active
Efr	DRSC18322		37960	40410	inactive
CG14736	DRSC14956		23183	55100	inactive
dmpd	DRSC06092		59393	51797	inactive
CG14545	DRSC14889		68400	88460	inactive
mthl14	DRSC07865		1.35e5	1.58e5	inactive
Mic26-27	DRSC15913		49003	48540	inactive
l(2)27Cb (retired record)	DRSC02758		25723	32377	inactive
CG31253 + CG31131	DRSC13839		1.89e5	2.25e5	inactive
Hand	DRSC02656		46783	89610	inactive
CG12607	DRSC08287		62340	63953	inactive
sesB	DRSC20371		2.02e5	1.84e5	inactive
PsGEF (retired record)	DRSC18600		41800	54270	inactive
PsGEF (retired record)	DRSC18601		29280	29420	inactive
Atu	DRSC12123		61653	29340	inactive
TotM	DRSC02355		24773	26387	inactive

In a second layout: entries from further up.
dtn [DRSC17939]
- raw ATP luminescence, replicate 1: 38400
- raw ATP luminescence, replicate 2: 37390
- outcome: inactive

CG33474 [DRSC05218]
- raw ATP luminescence, replicate 1: 74637
- raw ATP luminescence, replicate 2: 97457
- outcome: inactive

Adar [DRSC17725]
- raw ATP luminescence, replicate 1: 55680
- raw ATP luminescence, replicate 2: 49100
- outcome: inactive

coro [DRSC05007]
- raw ATP luminescence, replicate 1: 63963
- raw ATP luminescence, replicate 2: 62350
- outcome: inactive

CalpB [DRSC11109]
- raw ATP luminescence, replicate 1: 37843
- raw ATP luminescence, replicate 2: 37717
- outcome: inactive

REPTOR [DRSC14626]
- raw ATP luminescence, replicate 1: 43230
- raw ATP luminescence, replicate 2: 26043
- outcome: inactive

Cnx14D [DRSC20214]
- raw ATP luminescence, replicate 1: 2.60e5
- raw ATP luminescence, replicate 2: 2.22e5
- outcome: inactive

CG40551 (retired record) [DRSC21229]
- raw ATP luminescence, replicate 1: 1.91e5
- raw ATP luminescence, replicate 2: 2.64e5
- outcome: inactive

Zn72D [DRSC11318]
- raw ATP luminescence, replicate 1: 22007
- raw ATP luminescence, replicate 2: 24967
- outcome: inactive
